Measurements reported in publication PMC11166204, “Mapping the global interactome of the ARF family reveals spatial organization in cellular signaling pathways” (Journal of Cell Science, 2024).
These are yes or no findings as the source states them, for the method shown. In cells and extracts the contact can be indirect. A yes stands for co-enrichment or nearness to the bait. Other partners may have been found.

By UniProt entry, the sequences of proteins in these tests, tags left out. Where a name states a change or a piece, a line headed by the entry shows the natural chain unless it says otherwise.
UniProt P84077: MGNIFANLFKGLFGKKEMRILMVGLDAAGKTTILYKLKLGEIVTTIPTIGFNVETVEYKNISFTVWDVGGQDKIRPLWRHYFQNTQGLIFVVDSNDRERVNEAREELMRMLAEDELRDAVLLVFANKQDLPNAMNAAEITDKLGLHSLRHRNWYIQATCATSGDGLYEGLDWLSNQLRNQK
UniProt Q15836: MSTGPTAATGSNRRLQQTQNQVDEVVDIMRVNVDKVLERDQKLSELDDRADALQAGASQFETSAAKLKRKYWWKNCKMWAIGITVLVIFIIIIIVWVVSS
UniProt Q14789: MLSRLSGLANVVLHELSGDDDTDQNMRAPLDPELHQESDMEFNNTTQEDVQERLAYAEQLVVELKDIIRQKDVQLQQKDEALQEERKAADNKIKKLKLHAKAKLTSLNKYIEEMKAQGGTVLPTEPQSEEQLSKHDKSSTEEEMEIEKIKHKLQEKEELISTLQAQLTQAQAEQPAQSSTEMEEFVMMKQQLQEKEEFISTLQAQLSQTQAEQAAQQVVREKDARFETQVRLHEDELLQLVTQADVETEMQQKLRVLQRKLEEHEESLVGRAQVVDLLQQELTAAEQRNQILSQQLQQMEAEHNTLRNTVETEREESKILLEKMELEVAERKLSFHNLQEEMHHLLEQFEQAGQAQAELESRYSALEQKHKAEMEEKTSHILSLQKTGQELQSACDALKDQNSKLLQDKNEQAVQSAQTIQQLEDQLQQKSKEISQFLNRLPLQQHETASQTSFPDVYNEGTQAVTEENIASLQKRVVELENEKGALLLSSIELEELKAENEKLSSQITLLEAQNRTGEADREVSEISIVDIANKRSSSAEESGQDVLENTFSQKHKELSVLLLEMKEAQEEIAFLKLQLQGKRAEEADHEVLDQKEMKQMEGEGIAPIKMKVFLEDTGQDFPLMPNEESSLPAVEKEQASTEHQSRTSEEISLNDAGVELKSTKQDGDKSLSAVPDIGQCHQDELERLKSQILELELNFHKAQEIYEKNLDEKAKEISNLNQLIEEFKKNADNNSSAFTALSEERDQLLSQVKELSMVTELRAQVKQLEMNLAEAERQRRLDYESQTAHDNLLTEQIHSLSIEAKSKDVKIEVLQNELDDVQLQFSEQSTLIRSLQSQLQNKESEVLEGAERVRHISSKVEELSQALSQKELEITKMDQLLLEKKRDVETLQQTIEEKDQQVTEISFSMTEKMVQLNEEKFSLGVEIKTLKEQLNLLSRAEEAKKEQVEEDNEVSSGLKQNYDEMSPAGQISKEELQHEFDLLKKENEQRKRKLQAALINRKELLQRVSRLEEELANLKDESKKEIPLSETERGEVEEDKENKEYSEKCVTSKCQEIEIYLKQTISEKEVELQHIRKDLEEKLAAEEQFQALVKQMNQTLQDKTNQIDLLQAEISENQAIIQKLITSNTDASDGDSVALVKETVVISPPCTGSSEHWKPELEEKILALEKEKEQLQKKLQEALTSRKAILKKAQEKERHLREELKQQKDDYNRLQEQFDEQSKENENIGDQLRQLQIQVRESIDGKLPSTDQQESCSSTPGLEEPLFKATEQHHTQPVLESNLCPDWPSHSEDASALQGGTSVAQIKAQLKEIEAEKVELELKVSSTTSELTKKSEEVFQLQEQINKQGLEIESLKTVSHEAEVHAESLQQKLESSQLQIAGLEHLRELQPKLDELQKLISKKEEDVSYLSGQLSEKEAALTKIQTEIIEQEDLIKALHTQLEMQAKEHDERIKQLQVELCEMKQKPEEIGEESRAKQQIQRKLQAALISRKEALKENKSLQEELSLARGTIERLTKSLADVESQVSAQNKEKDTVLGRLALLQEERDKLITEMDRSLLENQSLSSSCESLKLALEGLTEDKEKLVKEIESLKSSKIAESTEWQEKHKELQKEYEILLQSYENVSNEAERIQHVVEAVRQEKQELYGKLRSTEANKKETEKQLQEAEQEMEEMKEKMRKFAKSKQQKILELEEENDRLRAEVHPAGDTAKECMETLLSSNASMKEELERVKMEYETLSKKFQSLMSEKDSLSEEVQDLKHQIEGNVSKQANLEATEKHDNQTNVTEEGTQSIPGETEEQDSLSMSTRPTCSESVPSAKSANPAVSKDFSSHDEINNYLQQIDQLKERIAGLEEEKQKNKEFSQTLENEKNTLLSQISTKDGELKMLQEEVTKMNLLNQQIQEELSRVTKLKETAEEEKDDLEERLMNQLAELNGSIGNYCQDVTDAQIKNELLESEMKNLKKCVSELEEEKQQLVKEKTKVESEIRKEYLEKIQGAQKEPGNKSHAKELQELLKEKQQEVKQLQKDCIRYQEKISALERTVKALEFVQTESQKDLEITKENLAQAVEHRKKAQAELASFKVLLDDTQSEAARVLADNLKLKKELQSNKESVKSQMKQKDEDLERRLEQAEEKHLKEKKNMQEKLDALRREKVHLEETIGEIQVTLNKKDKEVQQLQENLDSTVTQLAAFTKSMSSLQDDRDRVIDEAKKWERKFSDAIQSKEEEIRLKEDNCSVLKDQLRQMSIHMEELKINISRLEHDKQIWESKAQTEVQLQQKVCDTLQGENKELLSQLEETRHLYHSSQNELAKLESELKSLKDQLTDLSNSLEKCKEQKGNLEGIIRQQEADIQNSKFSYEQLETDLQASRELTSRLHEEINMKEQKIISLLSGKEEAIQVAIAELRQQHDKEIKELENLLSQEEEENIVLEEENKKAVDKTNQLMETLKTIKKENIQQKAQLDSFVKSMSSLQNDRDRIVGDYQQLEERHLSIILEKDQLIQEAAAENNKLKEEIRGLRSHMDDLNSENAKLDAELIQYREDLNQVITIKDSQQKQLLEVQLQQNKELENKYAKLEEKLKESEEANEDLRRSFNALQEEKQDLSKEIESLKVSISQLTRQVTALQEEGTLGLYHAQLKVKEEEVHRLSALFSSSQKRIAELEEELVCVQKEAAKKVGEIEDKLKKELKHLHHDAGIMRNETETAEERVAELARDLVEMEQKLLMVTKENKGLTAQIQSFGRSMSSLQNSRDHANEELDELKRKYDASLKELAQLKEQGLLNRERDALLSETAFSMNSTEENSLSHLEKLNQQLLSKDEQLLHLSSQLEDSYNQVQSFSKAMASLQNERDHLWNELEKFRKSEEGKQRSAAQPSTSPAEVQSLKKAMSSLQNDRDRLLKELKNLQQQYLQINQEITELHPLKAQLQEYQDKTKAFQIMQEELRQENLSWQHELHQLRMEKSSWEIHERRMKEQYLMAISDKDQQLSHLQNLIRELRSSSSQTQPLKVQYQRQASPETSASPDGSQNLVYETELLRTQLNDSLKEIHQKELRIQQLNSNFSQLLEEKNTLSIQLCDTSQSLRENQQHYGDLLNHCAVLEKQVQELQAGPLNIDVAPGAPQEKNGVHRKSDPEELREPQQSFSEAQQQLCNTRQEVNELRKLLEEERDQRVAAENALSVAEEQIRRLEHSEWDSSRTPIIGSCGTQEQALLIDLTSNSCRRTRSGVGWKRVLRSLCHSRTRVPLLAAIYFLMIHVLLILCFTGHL
UniProt Q9Y6D5: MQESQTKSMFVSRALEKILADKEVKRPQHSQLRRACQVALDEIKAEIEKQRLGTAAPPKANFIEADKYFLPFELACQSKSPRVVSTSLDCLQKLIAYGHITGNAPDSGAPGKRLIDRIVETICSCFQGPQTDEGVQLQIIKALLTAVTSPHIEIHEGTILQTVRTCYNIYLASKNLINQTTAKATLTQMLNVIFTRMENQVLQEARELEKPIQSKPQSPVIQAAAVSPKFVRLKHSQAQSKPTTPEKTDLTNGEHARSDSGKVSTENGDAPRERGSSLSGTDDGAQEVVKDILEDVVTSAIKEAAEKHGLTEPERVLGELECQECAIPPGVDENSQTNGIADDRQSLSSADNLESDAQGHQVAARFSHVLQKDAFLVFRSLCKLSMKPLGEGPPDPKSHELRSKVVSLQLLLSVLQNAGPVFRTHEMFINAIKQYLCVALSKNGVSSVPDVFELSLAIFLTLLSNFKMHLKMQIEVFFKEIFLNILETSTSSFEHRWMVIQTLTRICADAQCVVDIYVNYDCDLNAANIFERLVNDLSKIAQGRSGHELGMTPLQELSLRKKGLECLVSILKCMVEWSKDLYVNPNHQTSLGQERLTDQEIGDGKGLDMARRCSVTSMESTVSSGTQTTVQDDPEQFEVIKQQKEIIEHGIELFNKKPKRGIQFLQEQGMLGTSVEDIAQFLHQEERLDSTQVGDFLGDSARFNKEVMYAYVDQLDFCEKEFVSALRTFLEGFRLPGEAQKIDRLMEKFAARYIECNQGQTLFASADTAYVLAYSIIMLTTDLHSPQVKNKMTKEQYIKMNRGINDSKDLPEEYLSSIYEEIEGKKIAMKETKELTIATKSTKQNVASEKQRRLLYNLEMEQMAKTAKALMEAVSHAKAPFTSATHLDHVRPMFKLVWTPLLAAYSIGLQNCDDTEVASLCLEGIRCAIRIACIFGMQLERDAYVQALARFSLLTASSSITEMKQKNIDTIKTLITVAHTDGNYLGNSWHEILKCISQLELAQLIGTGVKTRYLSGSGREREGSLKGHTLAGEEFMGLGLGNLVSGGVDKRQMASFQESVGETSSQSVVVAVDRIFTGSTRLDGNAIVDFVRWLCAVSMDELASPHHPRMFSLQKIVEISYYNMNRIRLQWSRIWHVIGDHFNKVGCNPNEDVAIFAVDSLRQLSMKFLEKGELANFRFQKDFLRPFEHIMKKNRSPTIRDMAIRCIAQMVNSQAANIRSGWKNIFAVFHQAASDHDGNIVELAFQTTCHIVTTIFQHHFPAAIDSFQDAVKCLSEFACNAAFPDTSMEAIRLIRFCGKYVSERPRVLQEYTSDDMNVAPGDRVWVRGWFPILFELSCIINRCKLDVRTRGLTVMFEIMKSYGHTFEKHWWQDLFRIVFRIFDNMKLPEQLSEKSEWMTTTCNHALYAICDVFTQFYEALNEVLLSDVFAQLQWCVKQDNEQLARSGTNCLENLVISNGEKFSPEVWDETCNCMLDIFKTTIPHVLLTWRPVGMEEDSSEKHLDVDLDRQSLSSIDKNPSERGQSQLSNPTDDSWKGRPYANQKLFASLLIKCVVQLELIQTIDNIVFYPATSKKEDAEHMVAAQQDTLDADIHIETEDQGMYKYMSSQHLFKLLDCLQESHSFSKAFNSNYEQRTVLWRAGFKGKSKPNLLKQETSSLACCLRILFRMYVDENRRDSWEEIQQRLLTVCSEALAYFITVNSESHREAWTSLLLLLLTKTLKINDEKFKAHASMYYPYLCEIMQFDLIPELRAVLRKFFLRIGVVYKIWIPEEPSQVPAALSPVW
UniProt Q9NP61: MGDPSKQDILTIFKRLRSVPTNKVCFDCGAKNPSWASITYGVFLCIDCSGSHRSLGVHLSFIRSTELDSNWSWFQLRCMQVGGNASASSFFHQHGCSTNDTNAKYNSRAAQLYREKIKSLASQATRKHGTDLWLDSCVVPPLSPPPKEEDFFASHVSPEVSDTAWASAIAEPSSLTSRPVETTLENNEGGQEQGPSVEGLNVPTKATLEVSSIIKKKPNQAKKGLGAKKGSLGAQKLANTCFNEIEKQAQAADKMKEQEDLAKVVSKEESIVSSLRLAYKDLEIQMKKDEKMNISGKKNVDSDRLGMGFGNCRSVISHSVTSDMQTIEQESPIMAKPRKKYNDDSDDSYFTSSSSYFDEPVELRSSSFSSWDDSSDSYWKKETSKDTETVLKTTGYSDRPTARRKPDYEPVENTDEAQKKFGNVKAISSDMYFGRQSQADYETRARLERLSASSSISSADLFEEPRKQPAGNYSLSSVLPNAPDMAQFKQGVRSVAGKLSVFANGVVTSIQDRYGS
UniProt Q8N6H7: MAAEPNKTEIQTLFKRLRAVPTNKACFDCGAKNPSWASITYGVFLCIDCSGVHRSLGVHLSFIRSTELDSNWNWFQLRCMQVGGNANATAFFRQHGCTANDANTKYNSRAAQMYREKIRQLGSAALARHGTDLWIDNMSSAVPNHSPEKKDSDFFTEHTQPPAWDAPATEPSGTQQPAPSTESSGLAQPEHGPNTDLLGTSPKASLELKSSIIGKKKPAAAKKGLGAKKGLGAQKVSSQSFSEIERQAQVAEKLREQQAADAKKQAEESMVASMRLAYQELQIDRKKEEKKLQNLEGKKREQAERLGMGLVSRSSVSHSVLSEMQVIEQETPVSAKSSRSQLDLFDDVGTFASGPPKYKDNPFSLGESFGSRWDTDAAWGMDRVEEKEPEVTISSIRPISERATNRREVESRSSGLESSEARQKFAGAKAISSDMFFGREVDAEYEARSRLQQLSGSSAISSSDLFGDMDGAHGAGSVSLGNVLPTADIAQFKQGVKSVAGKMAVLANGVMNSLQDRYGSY

These molecules were tested against constitutively active ARF1 (Q71L)–BirA*–Flag (human) (UniProt P84077) (assay: proximity labelling; BioID: constitutively active ARF/ARL bait with C-terminal BirA*–Flag, tetracycline-induced in Flp-In T-REx HEK293 and Flp-In T-REx HeLa cells, 50 µM biotin, 24 h labelling; RIPA lysis, streptavidin beads, on-bead trypsin, MS; SAINT AvgP ≥0.95 with AvgSpec and CAAX-ratio filters).

binding	Molecule
binds	VAMP3 (from UniProt Q15836 1-100)
binds	GOLGB1 (from UniProt Q14789 1-3259)
binds	ARFGEF2 (from UniProt Q9Y6D5 1-1785)
binds	ARFGAP3 (from UniProt Q9NP61 1-516)
binds	ARFGAP1 (from UniProt Q8N6T3 1-406)
binds	ARFGAP2 (from UniProt Q8N6H7 1-521)
binds	GOLGA5 (protein, UniProt Q8TBA6 1-731) MSWFVDLAGKAEDLLNRVDQGAATALSRKDNASNIYSKNTDYTELHQQNTDLIYQTGPKSTYISSAADNIRNQKATILAGTANVKVGSRTPVEASHPVENASVPRPSSHFVRRKKSEPDDELLFDFLNSSQKEPTGRVEIRKEKGKTPVFQSSQTSSVSSVNPSVTTIKTIEENSFGSQTHEAASNSDSSHEGQEESSKENVSSNAACPDHTPTPNDDGKSHELSNLRLENQLLRNEVQSLNQEMASLLQRSKETQEELNKARARVEKWNADHSKSDRMTRGLRAQVDDLTEAVAAKDSQLAVLKVRLQEADQLLSTRTEALEALQSEKSRIMQDQSEGNSLQNQALQTFQERLHEADATLKREQESYKQMQSEFAARLNKVEMERQNLAEAITLAERKYSDEKKRVDELQQQVKLYKLNLESSKQELIDYKQKATRILQSKEKLINSLKEGSGFEGLDSSTASSMELEELRHEKEMQREEIQKLMGQIHQLRSELQDMEAQQVNEAESAREQLQDLHDQIAGQKASKQELETELERLKQEFHYIEEDLYRTKNTLQSRIKDRDEEIQKLRNQLTNKTLSNSSQSELENRLHQLTETLIQKQTMLESLSTEKNSLVFQLERLEQQMNSASGSSSNGSSINMSGIDNGEGTRLRNVPVLFNDTETNLAGMYGKVRKAASSIDQFSIRLGIFLRRYPIARVFVIIYMALLHLWVMIVLLTYTPEMHHDQPYGK
binds	GOLGA3 (protein, UniProt Q08378 1-1498) MDGASAEQDGLQEDRSHSGPSSLPEAPLKPPGPLVPPDQQDKVQCAEVNRASTEGESPDGPGQGGLCQNGPTPPFPDPPSSLDPTTSPVGPDASPGVAGFHDNLRKSQGTSAEGSVRKEALQSLRLSLPMQETQLCSTDSPLPLEKEEQVRLQARKWLEEQLKQYRVKRQQERSSQPATKTRLFSTLDPELMLNPENLPRASTLAMTKEYSFLRTSVPRGPKVGSLGLPAHPREKKTSKSSKIRSLADYRTEDSNAGNSGGNVPAPDSTKGSLKQNRSSAASVVSEISLSPDTDDRLENTSLAGDSVSEVDGNDSDSSSYSSASTRGTYGILSKTVGTQDTPYMVNGQEIPADTLGQFPSIKDVLQAAAAEHQDQGQEVNGEVRSRRDSICSSVSLESSAAETQEEMLQVLKEKMRLEGQLEALSLEASQALKEKAELQAQLAALSTKLQAQVECSHSSQQRQDSLSSEVDTLKQSCWDLERAMTDLQNMLEAKNASLASSNNDLQVAEEQYQRLMAKVEDMQRSMLSKDNTVHDLRQQMTALQSQLQQVQLERTTLTSKLKASQAEISSLQSVRQWYQQQLALAQEARVRLQGEMAHIQVGQMTQAGLLEHLKLENVSLSQQLTETQHRSMKEKGRIAAQLQGIEADMLDQEAAFMQIQEAKTMVEEDLQRRLEEFEGERERLQRMADSAASLEQQLEQVKLTLLQRDQQLEALQQEHLDLMKQLTLTQEALQSREQSLDALQTHYDELQARLGELQGEAASREDTICLLQNEKIILEAALQAAKSGKEELDRGARRLEEGTEETSETLEKLREELAIKSGQVEHLQQETAALKKQMQKIKEQFLQQKVMVEAYRRDATSKDQLISELKATRKRLDSELKELRQELMQVHGEKRTAEAELSRLHREVAQVRQHMADLEGHLQSAQKERDEMETHLQSLQFDKEQMVAVTEANEALKKQIEELQQEARKAITEQKQKMRRLGSDLTSAQKEMKTKHKAYENAVGILSRRLQEALAAKEAADAELGQLRAQGGSSDSSLALHERIQALEAELQAVSHSKTLLEKELQEVIALTSQELEESREKVLELEDELQESRGFRKKIKRLEESNKKLALELEHEKGKLTGLGQSNAALREHNSILETALAKREADLVQLNLQVQAVLQRKEEEDRQMKHLVQALQASLEKEKEKVNSLKEQVAAAKVEAGHNRRHFKAASLELSEVKKELQAKEHLVQKLQAEADDLQIREGKHSQEIAQFQAELAEARAQLQLLQKQLDEQLSKQPVGNQEMENLKWEVDQKEREIQSLKQQLDLTEQQGRKELEGLQQLLQNVKSELEMAQEDLSMTQKDKFMLQAKVSELKNNMKTLLQQNQQLKLDLRRGAAKTRKEPKGEASSSNPATPIKIPDCPVPASLLEELLRPPPAVSKEPLKNLNSCLQQLKQEMDSLQRQMEEHALTVHESLSSWTPLEPATASPVPPGGHAGPRGDPQRHSQSRASKEGPGE
